These are yes or no findings as the source states them, for the method shown. Some binding calls cover weakened binding; strength is not graded here. Tags and fused reporters may be left off the sequences shown.
Molecular target: T1, Drosophila Tribbles (Trbl), wild type, yeast two-hybrid bait (FLAGTRBL) (Drosophila) (UniProt Q9V3Z1)
T1 sequence: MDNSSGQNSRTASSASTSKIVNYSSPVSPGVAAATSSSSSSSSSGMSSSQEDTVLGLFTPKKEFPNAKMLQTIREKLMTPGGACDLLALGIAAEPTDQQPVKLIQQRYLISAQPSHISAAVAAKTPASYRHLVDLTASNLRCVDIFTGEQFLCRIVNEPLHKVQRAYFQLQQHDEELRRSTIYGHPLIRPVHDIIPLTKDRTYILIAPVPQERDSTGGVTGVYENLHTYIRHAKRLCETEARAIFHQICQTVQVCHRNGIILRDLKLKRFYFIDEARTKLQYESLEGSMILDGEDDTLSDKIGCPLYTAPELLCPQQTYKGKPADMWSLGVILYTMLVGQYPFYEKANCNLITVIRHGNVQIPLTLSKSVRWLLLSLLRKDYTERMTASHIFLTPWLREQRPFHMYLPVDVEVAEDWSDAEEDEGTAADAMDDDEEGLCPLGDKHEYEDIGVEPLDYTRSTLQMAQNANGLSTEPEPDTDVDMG
Experiment: two-hybrid; Trbl in the bait vector, Akt1 in the prey vector; yeast growth on HIS- dropout plates with increasing 3-Amino-1,2,4-triazole (3AT), up to 50 mM

B1: Drosophila Akt1, yeast two-hybrid prey (enzyme, UniProt Q8INB9-2 1-530)
chain: MSINTTFDLSSPSVTSGHALTEQTQVVKEGWLMKRGEHIKNWRQRYFVLHSDGRLMGYRSKPADSASTPSDFLLNNFTVRGCQIMTVDRPKPFTFIIRGLQWTTVIERTFAVESELERQQWTEAIRNVSSRLIDVGEVAMTPSEQTDMTDVDMATIAEDELSEQFSVQGTTCNSSGVKKVTLENFEFLKVLGKGTFGKVILCREKATAKLYAIKILKKEVIIQKDEVAHTLTESRVLKSTNHPFLISLKYSFQTNDRLCFVMQYVNGGELFWHLSHERIFTEDRTRFYGAEIISALGYLHSQGIIYRDLKLENLLLDKDGHIKVADFGLCKEDITYGRTTKTFCGTPEYLAPEVLDDNDYGQAVDWWGTGVVMYEMICGRLPFYNRDHDVLFTLILVEEVKFPRNITDEAKNLLAGLLAKDPKKRLGGGKDDVKEIQAHPFFASINWTDLVLKKIPPPFKPQVTSDTDTRYFDKEFTGESVELTPPDPTGPLGSIAEEPLFPQFSYQGDMASTLGTSSHISTSTSLASMQ
With B1 the binding was “binds”.
